The list shows a part of the results.
Columns and labels:
Test in all cases: log2 fold change, soluble protein after heating vs DMSO (PISA); higher = thermal stabilisation; K562 cells, 10 uM, 30 min; active = over 0.2 and 3.5 SD of the protein, either way, in both replicates (recomputed)
[1] = compound: CC1=C(C=C(C=C1)NC(=O)C2=CC(=CC=C2)C(C)(C)C#N)NC3=CC4=C(C=C3)N=CN(C4=O)C
In short: (§1)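 Soluble protein was quantified by TMTpro 16plex LC-MS/MS after channel sums were equalised. It was obtained as the supernatant after 21,000xg for 90 min from pooled aliquots of K562 cells (2×10^6 cells/mL, 10 μM compound, 30 min) heated for 3 min across 48°C-58°C and extracted in PBS with 0.5% NP-40 at 4°C. Thermal stability values are relative to control samples and come from duplicates. They are given as log2 fold changes.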

Amino acid sequences for entries named in this document (tags omitted). A change or cut given only in a name is not applied to a line headed by its entry.
UniProt P17987, whole entry, looked up: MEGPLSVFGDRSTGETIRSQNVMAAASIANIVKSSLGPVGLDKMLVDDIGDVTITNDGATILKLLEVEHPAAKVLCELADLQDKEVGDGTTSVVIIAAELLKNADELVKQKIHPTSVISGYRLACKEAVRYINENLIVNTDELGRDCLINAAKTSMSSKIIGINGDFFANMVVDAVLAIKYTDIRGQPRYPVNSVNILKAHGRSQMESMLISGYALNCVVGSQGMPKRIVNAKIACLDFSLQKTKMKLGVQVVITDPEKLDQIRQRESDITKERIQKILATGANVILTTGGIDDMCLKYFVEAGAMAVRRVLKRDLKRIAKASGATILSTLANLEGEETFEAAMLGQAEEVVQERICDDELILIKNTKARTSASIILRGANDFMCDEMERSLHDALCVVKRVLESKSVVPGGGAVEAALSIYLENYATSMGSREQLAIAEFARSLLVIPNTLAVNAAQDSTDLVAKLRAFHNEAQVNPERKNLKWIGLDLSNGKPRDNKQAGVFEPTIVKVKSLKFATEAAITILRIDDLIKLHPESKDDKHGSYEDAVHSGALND
UniProt P07996: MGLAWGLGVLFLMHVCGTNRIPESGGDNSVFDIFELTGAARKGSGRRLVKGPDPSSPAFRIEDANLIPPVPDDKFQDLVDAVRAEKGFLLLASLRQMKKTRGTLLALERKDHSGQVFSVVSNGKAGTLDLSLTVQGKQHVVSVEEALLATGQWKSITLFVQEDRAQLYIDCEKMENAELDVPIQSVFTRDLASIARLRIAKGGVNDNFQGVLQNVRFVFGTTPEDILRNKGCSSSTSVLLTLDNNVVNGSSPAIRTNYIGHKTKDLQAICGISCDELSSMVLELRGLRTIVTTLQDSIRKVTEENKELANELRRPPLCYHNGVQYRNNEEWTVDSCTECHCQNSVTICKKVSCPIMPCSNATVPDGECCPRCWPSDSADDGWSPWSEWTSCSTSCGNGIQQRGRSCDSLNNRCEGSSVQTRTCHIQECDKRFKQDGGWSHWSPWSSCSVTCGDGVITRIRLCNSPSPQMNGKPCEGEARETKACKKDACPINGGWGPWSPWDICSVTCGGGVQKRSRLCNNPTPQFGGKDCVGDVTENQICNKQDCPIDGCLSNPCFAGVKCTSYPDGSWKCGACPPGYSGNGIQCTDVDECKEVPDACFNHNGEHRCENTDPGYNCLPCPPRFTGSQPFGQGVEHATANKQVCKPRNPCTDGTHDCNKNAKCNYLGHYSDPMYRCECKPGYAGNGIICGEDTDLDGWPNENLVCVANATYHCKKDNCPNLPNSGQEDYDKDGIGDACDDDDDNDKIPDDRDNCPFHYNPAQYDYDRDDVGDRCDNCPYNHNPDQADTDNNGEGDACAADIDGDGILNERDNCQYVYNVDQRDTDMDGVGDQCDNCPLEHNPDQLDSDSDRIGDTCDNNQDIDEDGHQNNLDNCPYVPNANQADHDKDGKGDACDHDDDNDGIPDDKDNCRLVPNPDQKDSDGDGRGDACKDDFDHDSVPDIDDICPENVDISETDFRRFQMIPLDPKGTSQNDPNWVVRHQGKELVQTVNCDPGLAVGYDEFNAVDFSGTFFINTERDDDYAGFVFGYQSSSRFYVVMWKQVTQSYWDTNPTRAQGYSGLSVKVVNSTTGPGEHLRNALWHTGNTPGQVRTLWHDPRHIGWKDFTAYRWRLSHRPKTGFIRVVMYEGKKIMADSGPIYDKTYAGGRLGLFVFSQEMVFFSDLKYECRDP
UniProt Q9Y584: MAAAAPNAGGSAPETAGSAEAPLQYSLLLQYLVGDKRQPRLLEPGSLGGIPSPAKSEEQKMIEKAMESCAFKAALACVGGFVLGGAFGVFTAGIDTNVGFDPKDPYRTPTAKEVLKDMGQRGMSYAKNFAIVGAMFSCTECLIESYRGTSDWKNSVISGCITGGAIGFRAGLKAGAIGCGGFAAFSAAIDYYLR
UniProt Q6YHU6: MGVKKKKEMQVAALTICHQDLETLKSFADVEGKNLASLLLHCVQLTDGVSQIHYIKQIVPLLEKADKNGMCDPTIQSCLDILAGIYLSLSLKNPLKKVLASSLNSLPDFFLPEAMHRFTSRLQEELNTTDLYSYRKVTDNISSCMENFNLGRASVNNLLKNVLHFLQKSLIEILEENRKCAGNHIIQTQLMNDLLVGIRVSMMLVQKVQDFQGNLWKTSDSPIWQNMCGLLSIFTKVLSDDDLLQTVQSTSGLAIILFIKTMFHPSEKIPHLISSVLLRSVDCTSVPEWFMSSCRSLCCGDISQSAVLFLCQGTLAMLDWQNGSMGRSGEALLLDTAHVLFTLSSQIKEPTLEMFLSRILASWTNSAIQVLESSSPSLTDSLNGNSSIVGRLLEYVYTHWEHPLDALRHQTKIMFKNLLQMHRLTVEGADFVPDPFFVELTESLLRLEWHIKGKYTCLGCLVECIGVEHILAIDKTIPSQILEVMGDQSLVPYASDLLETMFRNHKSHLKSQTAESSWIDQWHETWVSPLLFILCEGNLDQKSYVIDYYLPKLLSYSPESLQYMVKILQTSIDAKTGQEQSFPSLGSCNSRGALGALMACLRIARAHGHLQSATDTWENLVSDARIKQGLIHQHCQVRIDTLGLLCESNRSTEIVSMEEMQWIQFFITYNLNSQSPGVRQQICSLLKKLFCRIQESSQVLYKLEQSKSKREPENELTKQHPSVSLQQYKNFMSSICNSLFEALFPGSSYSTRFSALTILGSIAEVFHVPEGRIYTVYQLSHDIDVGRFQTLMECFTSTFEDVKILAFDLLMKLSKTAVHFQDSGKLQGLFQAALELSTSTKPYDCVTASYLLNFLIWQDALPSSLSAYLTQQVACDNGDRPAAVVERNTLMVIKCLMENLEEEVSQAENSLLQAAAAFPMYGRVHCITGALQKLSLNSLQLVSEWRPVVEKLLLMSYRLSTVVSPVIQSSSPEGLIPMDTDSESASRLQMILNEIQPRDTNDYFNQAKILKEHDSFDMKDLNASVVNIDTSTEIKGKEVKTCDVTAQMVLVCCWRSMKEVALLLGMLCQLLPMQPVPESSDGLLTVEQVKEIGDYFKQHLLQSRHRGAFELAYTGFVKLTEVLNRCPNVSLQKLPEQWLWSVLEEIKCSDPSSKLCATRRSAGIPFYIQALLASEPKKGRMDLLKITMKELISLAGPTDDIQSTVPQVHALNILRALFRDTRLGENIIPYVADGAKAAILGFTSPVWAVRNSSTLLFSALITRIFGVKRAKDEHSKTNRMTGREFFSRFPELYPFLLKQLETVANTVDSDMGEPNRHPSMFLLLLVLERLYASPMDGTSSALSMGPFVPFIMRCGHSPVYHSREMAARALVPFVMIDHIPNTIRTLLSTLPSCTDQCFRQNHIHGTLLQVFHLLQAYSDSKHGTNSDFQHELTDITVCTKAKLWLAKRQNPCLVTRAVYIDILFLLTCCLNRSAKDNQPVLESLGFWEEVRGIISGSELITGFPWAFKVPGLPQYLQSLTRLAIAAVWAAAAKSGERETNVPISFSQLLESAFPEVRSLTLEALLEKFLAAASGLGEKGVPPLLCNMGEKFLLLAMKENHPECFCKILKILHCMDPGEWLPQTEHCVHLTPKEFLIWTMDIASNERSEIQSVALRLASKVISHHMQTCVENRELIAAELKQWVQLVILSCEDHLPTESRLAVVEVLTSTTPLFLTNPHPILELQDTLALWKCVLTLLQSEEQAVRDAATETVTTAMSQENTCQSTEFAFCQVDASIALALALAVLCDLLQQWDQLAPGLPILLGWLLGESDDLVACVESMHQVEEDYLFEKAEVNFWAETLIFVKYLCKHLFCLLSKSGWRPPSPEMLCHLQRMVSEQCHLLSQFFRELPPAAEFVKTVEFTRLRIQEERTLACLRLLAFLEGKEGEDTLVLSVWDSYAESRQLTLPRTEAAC
UniProt Q99426: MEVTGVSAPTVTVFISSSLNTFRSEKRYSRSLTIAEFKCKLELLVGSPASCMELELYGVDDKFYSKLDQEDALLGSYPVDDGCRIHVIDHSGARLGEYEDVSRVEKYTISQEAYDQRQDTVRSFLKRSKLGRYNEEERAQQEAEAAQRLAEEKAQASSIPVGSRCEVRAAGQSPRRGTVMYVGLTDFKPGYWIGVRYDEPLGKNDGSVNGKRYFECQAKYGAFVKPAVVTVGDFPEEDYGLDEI
UniProt Q9BTF0: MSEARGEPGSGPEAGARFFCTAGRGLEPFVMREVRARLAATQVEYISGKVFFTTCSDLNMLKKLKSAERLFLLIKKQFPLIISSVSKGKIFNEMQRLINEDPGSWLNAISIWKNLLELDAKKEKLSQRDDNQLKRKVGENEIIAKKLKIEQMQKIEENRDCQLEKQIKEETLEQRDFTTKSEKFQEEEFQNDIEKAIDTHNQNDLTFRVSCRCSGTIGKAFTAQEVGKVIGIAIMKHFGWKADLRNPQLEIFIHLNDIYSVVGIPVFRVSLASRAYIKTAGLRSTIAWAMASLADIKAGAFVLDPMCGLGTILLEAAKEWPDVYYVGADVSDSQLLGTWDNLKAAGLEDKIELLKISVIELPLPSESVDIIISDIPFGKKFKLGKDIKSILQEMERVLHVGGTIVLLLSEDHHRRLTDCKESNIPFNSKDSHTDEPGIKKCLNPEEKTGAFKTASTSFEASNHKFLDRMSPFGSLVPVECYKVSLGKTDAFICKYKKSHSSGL
UniProt Q92609: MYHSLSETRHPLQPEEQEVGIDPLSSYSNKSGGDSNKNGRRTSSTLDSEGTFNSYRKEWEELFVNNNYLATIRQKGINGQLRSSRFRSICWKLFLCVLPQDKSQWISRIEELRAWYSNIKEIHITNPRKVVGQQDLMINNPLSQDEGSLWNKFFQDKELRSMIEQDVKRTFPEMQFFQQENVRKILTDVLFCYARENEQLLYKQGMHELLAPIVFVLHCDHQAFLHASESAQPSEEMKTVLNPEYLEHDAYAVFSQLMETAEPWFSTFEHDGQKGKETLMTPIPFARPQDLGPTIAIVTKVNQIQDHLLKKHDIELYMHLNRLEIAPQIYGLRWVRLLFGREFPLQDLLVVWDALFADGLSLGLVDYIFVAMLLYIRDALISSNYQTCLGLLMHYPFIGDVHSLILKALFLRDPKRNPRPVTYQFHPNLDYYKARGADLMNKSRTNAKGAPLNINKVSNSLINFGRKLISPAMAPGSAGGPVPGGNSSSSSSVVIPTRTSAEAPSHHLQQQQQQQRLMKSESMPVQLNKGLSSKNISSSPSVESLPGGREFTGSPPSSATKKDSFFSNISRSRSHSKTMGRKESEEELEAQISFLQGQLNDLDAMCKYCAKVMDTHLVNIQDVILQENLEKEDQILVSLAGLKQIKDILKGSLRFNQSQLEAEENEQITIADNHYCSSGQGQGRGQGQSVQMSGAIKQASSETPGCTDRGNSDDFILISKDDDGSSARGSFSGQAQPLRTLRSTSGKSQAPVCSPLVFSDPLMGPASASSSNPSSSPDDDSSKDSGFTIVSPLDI
UniProt O60907: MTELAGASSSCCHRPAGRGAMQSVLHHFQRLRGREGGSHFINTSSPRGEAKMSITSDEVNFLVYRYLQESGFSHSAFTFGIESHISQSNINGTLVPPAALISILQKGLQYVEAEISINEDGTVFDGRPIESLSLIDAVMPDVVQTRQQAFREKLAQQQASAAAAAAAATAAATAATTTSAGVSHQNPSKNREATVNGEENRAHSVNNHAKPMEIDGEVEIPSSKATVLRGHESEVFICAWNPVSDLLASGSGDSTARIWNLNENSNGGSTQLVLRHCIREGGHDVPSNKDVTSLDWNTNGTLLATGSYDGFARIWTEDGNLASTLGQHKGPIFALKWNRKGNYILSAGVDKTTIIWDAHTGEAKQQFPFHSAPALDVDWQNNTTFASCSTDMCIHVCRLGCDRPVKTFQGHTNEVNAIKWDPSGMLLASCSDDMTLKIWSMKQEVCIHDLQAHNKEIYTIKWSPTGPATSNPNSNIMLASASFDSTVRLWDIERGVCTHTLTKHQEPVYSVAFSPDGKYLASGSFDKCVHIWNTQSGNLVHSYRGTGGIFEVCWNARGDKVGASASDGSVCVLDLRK
UniProt Q96J01: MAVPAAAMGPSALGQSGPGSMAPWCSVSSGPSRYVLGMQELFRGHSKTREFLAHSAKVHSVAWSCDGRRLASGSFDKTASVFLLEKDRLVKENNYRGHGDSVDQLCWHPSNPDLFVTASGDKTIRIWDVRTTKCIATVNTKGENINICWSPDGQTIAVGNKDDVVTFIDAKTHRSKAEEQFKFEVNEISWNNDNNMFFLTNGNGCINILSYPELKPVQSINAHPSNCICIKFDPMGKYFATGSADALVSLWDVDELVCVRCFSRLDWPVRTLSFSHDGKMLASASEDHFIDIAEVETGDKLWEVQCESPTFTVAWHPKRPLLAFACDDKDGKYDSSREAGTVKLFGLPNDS
UniProt Q9BVV7: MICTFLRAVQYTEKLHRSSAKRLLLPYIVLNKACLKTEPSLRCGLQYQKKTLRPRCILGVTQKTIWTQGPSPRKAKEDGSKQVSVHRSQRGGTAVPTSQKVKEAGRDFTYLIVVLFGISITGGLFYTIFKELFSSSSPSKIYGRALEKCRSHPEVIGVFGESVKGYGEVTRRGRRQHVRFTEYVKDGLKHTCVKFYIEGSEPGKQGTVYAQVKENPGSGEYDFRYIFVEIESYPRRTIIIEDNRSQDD

[2] = compound: CC1=C(C=C(C=C1)NC(=O)C2=CC(=CC=C2)N(C)C)NC(=O)C3=CC=C(C=C3)O
In short: as §1

[3] = compound: CC1=CC=C(C=C1)SC2=C3C=C(SC3=CN=C2)C(=O)N
In short: as §1

[4] = compound: CC1=NC(=CC=C1)C2=C(N=C(N2)C(C)(C)C)C3=CC4=NC=CN=C4C=C3
In short: as §1

Nexturastat A = compound: CCCCN(Cc1ccc(C(=O)NO)cc1)C(=O)Nc1ccccc1 [Nexturastat A]
In short: as §1

vemurafenib = compound: CCCS(=O)(=O)Nc1ccc(F)c(C(=O)c2c[nH]c3ncc(-c4ccc(Cl)cc4)cc23)c1F [vemurafenib]
In short: as §1

[5] = compound: CCCS(=O)(=O)Nc1ccc(F)c(C(=O)c2c[nH]c3ncc(Cl)cc23)c1F
In short: as §1

[6] = compound: CCCc1cc(C)[nH]c(=O)c1CNC(=O)c1cc(-c2ccnc(N3CCN(C)CC3)c2)cc2c1cnn2C(C)C
In short: as §1

givinostat = compound: CCN(CC)Cc1ccc2cc(COC(=O)Nc3ccc(C(=O)NO)cc3)ccc2c1 [givinostat]
In short: as §1

barasertib = compound: CCN(CCCOc1ccc2c(Nc3cc(CC(=O)Nc4cccc(F)c4)[nH]n3)ncnc2c1)CCOP(=O)(O)O [barasertib]
In short: as §1

Measured: log2 fold change

TBCD (UniProt Q9BTW9)
inactive: [1] 0.016 | [2] 0.003 | [3] 0.025 | [4] 0.052 | Nexturastat A -0.051 | vemurafenib 0.005 | [5] 0.02 | [6] -0.007 | givinostat 0.012 | barasertib 0.019

TCP1 (UniProt P17987)
inactive: [1] 0.013 | [2] 0.003 | [3] 0.021 | [4] 0.019 | Nexturastat A -0.062 | vemurafenib -0.007 | [5] -0.002 | [6] -0.001 | givinostat -0.023 | barasertib -0.019

TIMM8A (UniProt O60220)
inactive: [1] -0.031 | [2] -0.093 | [3] 0.018 | [4] 0.066 | Nexturastat A 0.025 | vemurafenib 0.059 | [5] -0.018 | [6] 0.071 | givinostat 0.009 | barasertib -0.027

THBS1 (UniProt P07996)
inactive: [1] -0.08 | [2] 0.256 | [3] 0.048 | [4] 0.137 | Nexturastat A 0.012 | vemurafenib 0.109 | [5] -0.084 | [6] -0.191 | givinostat -0.09 | barasertib 0.015

TJAP1 (UniProt Q5JTD0)
inactive: [1] 0.02 | [2] 0.259 | [3] -0.038 | [4] -0.115 | Nexturastat A -0.041 | vemurafenib 0.051 | [5] -0.074 | [6] 0.01 | givinostat 0.002 | barasertib -0.094

TCERG1 (UniProt O14776)
inactive: [1] 0.061 | [2] -0.147 | [3] 0.08 | [4] 0.077 | Nexturastat A -0.144 | vemurafenib 0.118 | [5] 0.135 | [6] -0.006 | givinostat 0.146 | barasertib 0.107

TECR (UniProt Q9NZ01)
inactive: [1] -0.017 | [2] -0.034 | [3] 0.031 | [4] 0.069 | Nexturastat A -0.043 | vemurafenib 0.021 | [5] 0.113 | [6] -0.084 | givinostat 0.011 | barasertib 0.007

TIMM22 (UniProt Q9Y584)
inactive: [1] 0.01 | [2] -0.009 | [3] -0.081 | [4] -0.012 | Nexturastat A -0.07 | vemurafenib 0.165 | [5] 0.019 | [6] 0.012 | givinostat 0.019 | barasertib -0.015

THADA (UniProt Q6YHU6)
inactive: [1] 0.03 | [2] -0.038 | [3] 0.019 | [4] -0.01 | Nexturastat A -0.021 | vemurafenib 0.038 | [5] 0.06 | [6] 0.039 | givinostat -0.006 | barasertib 0.07

TBCB (UniProt Q99426)
inactive: [1] 0.033 | [2] -0.017 | [3] 0.026 | [4] 0.023 | Nexturastat A 0.013 | vemurafenib 0.034 | [5] 0.056 | [6] -0.005 | givinostat 0.021 | barasertib 0.041

TFAM (UniProt Q00059)
inactive: [1] 0.039 | [2] -0.004 | [3] -0.036 | [4] -0.036 | Nexturastat A 0.079 | vemurafenib -0.05 | [5] -0.043 | [6] -0.033 | givinostat -0.055 | barasertib -0.023

THOP1 (UniProt P52888)
inactive: [1] 0.014 | [2] -0.004 | [3] 0.013 | [4] 0.026 | Nexturastat A -0.018 | vemurafenib -0.005 | [5] 0.002 | [6] -0.007 | givinostat -0.005 | barasertib -0.012

THBS4 (UniProt P35443)
inactive: [1] -0.081 | [2] 0.13 | [3] 0.085 | [4] 0.152 | Nexturastat A 0 | vemurafenib 0.144 | [5] -0.116 | [6] -0.35 | givinostat -0.067 | barasertib -0.023

TBC1D15 isoform 3 (UniProt Q8TC07)
inactive: [1] 0.076 | [2] -0.028 | [3] -0.003 | [4] -0.019 | Nexturastat A 0.002 | vemurafenib 0.049 | [5] 0.12 | [6] -0.015 | givinostat 0.046 | barasertib 0.068

TBC1D24 (UniProt Q9ULP9)
inactive: [1] -0.018 | [2] -0.012 | [3] 0.005 | [4] 0.006 | Nexturastat A -0.024 | vemurafenib 0.019 | [5] 0.046 | [6] -0.033 | givinostat 0.005 | barasertib -0.019

TBC1D20 isoform 3 (UniProt Q96BZ9)
inactive: [1] -0.048 | [2] 0.04 | [3] 0.128 | [4] 0.037 | Nexturastat A 0 | vemurafenib 0.083 | [5] 0.166 | [6] -0.14 | givinostat 0.076 | barasertib 0.034

TBC1D22A (UniProt Q8WUA7)
inactive: [1] -0.041 | [2] 0.055 | [3] 0.036 | [4] -0.058 | Nexturastat A -0.067 | vemurafenib 0.046 | [5] 0.052 | [6] -0.028 | givinostat -0.005 | barasertib -0.015

THUMPD2 (UniProt Q9BTF0)
inactive: [1] -0.004 | [2] -0.044 | [3] 0.065 | [4] 0.043 | Nexturastat A 0.075 | vemurafenib -0.042 | [5] 0.011 | [6] -0.014 | givinostat -0.025 | barasertib 0.034

TGFB1 (UniProt P01137)
inactive: [1] -0.027 | [2] 0.028 | [3] -0.004 | [4] 0.019 | Nexturastat A -0.005 | vemurafenib -0.016 | [5] -0.003 | [6] -0.04 | givinostat -0.002 | barasertib -0.03

TBC1D5 isoform 2 (UniProt Q92609)
inactive: [1] -0.051 | [2] -0.048 | [3] -0.013 | [4] 0.018 | Nexturastat A 0.01 | vemurafenib 0.048 | [5] 0.112 | [6] -0.033 | givinostat 0.049 | barasertib 0.022

TICAM2 isoform 2 (UniProt Q86XR7)
inactive: [1] 0.022 | [2] -0.028 | [3] 0.02 | [4] 0.028 | Nexturastat A -0.069 | vemurafenib 0.035 | [5] -0.01 | [6] 0.004 | givinostat 0.007 | barasertib 0.002

TBL1X (UniProt O60907)
inactive: [1] -0.028 | [2] 0.006 | [3] 0.032 | [4] -0.008 | Nexturastat A -0.128 | vemurafenib -0.026 | [5] 0.003 | [6] -0.038 | givinostat -0.096 | barasertib -0.014

TBL2 (UniProt Q9Y4P3)
inactive: [1] 0.024 | [2] -0.023 | [3] -0.04 | [4] 0 | Nexturastat A 0.239 | vemurafenib -0.008 | [5] -0.003 | [6] 0.097 | givinostat 0.008 | barasertib -0.012

THOC3 (UniProt Q96J01)
inactive: [1] -0.078 | [2] -0.004 | [3] 0.008 | [4] 0.01 | Nexturastat A -0.013 | vemurafenib -0.001 | [5] 0.065 | [6] 0.011 | givinostat -0.04 | barasertib 0.016

TIMM21 (UniProt Q9BVV7)
inactive: [1] 0.014 | [2] 0.008 | [3] 0.035 | [4] 0.058 | Nexturastat A -0.121 | vemurafenib 0.032 | [5] 0.067 | [6] -0.005 | givinostat 0.005 | barasertib 0.034

TKFC (UniProt Q3LXA3)
inactive: [1] 0.024 | [2] 0.019 | [3] 0.003 | [4] 0.038 | Nexturastat A -0.073 | vemurafenib -0.01 | [5] -0.009 | [6] -0.024 | givinostat -0.004 | barasertib 0.01

THG1L (UniProt Q9NWX6)
inactive: [1] -0.017 | [2] 0.005 | [3] 0.013 | [4] 0.044 | Nexturastat A -0.047 | vemurafenib -0.004 | [5] 0.006 | [6] -0.028 | givinostat -0.02 | barasertib 0.015

2 records drawn at random from the list so far, as already listed:
TIMM21 (UniProt Q9BVV7)
inactive: [1] 0.014 | [2] 0.008 | [3] 0.035 | [4] 0.058 | Nexturastat A -0.121 | vemurafenib 0.032 | [5] 0.067 | [6] -0.005 | givinostat 0.005 | barasertib 0.034

THG1L (UniProt Q9NWX6)
inactive: [1] -0.017 | [2] 0.005 | [3] 0.013 | [4] 0.044 | Nexturastat A -0.047 | vemurafenib -0.004 | [5] 0.006 | [6] -0.028 | givinostat -0.02 | barasertib 0.015

Additional records follow.

TEX2 isoform 2 (UniProt Q8IWB9)
inactive: [1] -0.024 | [2] -0.03 | [3] -0.103 | [4] -0.246 | Nexturastat A -0.024 | vemurafenib 0.045 | [5] 0.025 | [6] -0.04 | givinostat 0.053 | barasertib -0.07

TIAL1 isoform 2 (UniProt Q01085)
inactive: [1] -0.009 | [2] 0.015 | [3] -0.019 | [4] 0.08 | Nexturastat A 0.005 | vemurafenib 0.023 | [5] 0.002 | [6] -0.007 | givinostat -0.022 | barasertib -0.021

Reference: the supplement of paper PMC10849652
